These are yes or no findings as the source states them, for the method shown. Binding seen in cells or lysates may run through a third protein. Some entries that bind do so weakly or less than the wild type. Tags and fused reporters may be left off the sequences shown.
Molecular target: T1, Flag-tagged N-myc (and STAT) interactor (NMI) (human), Q13287
T1 chain: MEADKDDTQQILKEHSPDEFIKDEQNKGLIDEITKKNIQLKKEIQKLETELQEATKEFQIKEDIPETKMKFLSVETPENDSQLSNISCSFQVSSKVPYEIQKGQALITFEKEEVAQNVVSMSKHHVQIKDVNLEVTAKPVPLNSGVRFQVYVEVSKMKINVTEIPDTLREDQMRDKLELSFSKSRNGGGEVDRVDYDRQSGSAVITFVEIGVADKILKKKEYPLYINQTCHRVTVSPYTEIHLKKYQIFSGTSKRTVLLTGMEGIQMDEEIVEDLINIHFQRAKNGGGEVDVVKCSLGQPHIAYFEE
Assay: co-IP; U251 cells stably overexpressing Flag-tagged NMI and STAT1 (α or β) via lentivirus; NP-40 lysis buffer (50 mM Tris-HCl pH 7.5, 150 mM NaCl, 1% NP-40); anti-Flag M2 magnetic beads overnight at 4°C, four washes; blot with STAT1 antibody
Conditions: remark: other sources report otherwise

binding: binds
B1: STAT1α (STAT1 isoform α, transcript variant V1), P42224 1-750 (protein)
chain: MSQWYELQQLDSKFLEQVHQLYDDSFPMEIRQYLAQWLEKQDWEHAANDVSFATIRFHDLLSQLDDQYSRFSLENNFLLQHNIRKSKRNLQDNFQEDPIQMSMIIYSCLKEERKILENAQRFNQAQSGNIQSTVMLDKQKELDSKVRNVKDKVMCIEHEIKSLEDLQDEYDFKCKTLQNREHETNGVAKSDQKQEQLLLKKMYLMLDNKRKEVVHKIIELLNVTELTQNALINDELVEWKRRQQSACIGGPPNACLDQLQNWFTIVAESLQQVRQQLKKLEELEQKYTYEHDPITKNKQVLWDRTFSLFQQLIQSSFVVERQPCMPTHPQRPLVLKTGVQFTVKLRLLVKLQELNYNLKVKVLFDKDVNERNTVKGFRKFNILGTHTKVMNMEESTNGSLAAEFRHLQLKEQKNAGTRTNEGPLIVTEELHSLSFETQLCQPGLVIDLETTSLPVVVISNVSQLPSGWASILWYNMLVAEPRNLSFFLTPPCARWAQLSEVLSWQFSSVTKRGLNVDQLNMLGEKLLGPNASPDGLIPWTRFCKENINDKNFPFWLWIESILELIKKHLLPLWNDGCIMGFISKERERALLKDQQPGTFLLRFSESSREGAITFTWVERSQNGGEPDFHAVEPYTKKELSAVTFPDIIRNYKVMAAENIPENPLKYLYPNIDKDHAFGKYYSRPKEAPEPMELDGPKGTGYIKTELISVSEVHPSRLQTTDNLLPMSPEEFDEVSRIVGSVEFDSMMNTV

— publication PMC4467123
